Assay results taken from PubChem BioAssay AID493014 (National Center for Advancing Translational Sciences (NCATS), 2011).
This is one part of the list. These are further read-outs of the screen, such as a control signal, another cell line or another target. No call is given for them. Most of these compounds were active or inconclusive in the main read-out, so they are no random draw. The note in brackets gives the kind of curve behind each potency; many fits are weak.

Assay: qHTS Assay to Find Inhibitors of Chronic Active B-Cell Receptor Signaling
Settings: ABC-DLBCL IkBa-CBG/CBR reporter, luminescence ratio (green luciferase fused to IkBa over red control in TMD8 lymphoma cells), 4 h
Procedure, shortened: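 Doxycycline induced both beetle luciferases in TMD8 lymphoma cells; IKK-driven degradation limits the IkappaBalpha-fused green signal, while red luminescence normalises for cell number and nonspecific effects. Compounds tested up to 46 uM, 4 hrs.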

[1] = measured here: CBR red luminescence, cell number
[2] = measured here: IkBa-CBG green luminescence

Compound | AC50 [1] | AC50 [2]
COc1ccc2ccccc2c1-c1csc(N)n1 | 3.55 µM [rising, single point] | 
COc1ccc2nc(NC(=O)c3cc(C)oc3C)sc2c1 | 10.3 µM [falling, partial curve, poor fit] | 
N#Cc1c(N)nc2c(c1-c1ccc3c(c1)OCO3)CCc1ccccc1-2 | 10.3 µM [rising, partial curve] | 
COc1cccc(/C=N/N2CCN(c3ccncc3S(=O)(=O)N3CCCCC3)CC2)c1 | 0.206 µM [falling, full curve, poor fit] | 
COCCNC(=O)c1ccc2c3n(nc2c1)-c1ccccc1CO3 | 7.94 µM [falling, partial curve, poor fit] | 
CCOC(=O)C1C(=O)CC(C)(O)C(C(=O)OCC)C1c1ccco1 (stereo not drawn) | 25.9 µM [falling, single point] | 
O=C(CCn1c(=O)sc2ccccc21)Nc1nccs1 | 32.6 µM [falling, single point] | 
S=C(NCCc1ccccc1)NCc1cccc(Cl)c1 | 6.31 µM [falling, partial curve, poor fit] | 
O=C(O)CCn1cc(/C=C/C(=O)c2ccc(Cl)cc2)c(-c2ccc(Br)cc2)n1 | 0.411 µM [falling, partial curve, poor fit] | 20.6 µM [rising, partial curve, poor fit]
C(=N\Nc1nc(-c2ccccc2)cs1)/c1cccs1 | 0.0146 µM [falling, full curve, poor fit] | 
O=C(NCCCn1ccnc1)c1ccc(Cl)c(Cl)c1 | 0.1 µM [rising, full curve, poor fit] | 
COc1ccccc1C(c1c(N)n(C)c(=O)n(C)c1=O)C(C)[N+](=O)[O-] (stereo not drawn) | 12.6 µM [falling, partial curve, poor fit] | 
N#CC1=C(SCC(=O)c2ccccc2)NC2=C(C(=O)CCC2)C1c1ccco1 (stereo not drawn) | 35.5 µM [falling, single point] | 
CCOCCn1ccc2c(OCC(=O)Nc3ccc(OC(F)(F)F)cc3)cccc2c1=O | 10 µM [rising, single point] | 
CCCN(CCC)C(=O)C1CC(=O)OC12CCCCC2 (stereo not drawn) | 22.4 µM [rising, single point] | 
COc1ccc(CCNC(=O)C/C(C)=N/NC(=O)c2ccc(N)cc2)cc1OC | 2.91 µM [falling, partial curve] | 
O=C(NC(=S)Nc1ccc(Br)cc1)C1CCC1 | 0.355 µM [rising, partial curve, poor fit] | 
Cc1cc(C)c2c3c(sc2n1)C(=O)N(Cc1ccccc1)CC(=O)N3 | 6.51 µM [falling, single point] | 
Nc1nc(-c2cccnc2)nn1C(=O)c1ccc(Cl)cc1 | 4.47 µM [rising, full curve, poor fit] | 
CSc1nc(-c2ccc(C)cc2)nc(N)c1C#N | 0.355 µM [falling, full curve, poor fit] | 
CC(C)OCCCN1CN(S(=O)(=O)c2cccs2)c2nc3ccccc3nc21 | 3.55 µM [rising, single point] | 

Taken from above:
Under AC50 [1], N#Cc1c(N)nc2c(c1-c1ccc3c(c1)OCO3)CCc1ccccc1-2 reads 10.3 µM [rising, partial curve]
Under AC50 [1], N#CC1=C(SCC(=O)c2ccccc2)NC2=C(C(=O)CCC2)C1c1ccco1 (stereo not drawn) reads 35.5 µM [falling, single point]

Continuation:

Compound | AC50 [1] | AC50 [2]
COc1ccc(NC(=S)N(CCc2c(C)[nH]c3ccc(C)cc23)Cc2ccco2)cc1 | 29.1 µM [falling, single point] | 
COc1ccc(NC(=O)C2CCC2)cc1S(=O)(=O)Nc1cc(C)ccc1Br | 29.1 µM [falling, single point] | 
Cc1ccc(CN(C)C(=O)c2ccccc2Oc2ccccc2)o1 | 7.08 µM [falling, partial curve, poor fit] | 
CCOc1ccc(N2C(=O)c3ccc(C(=O)OCC(=O)N(CC)C4CCS(=O)(=O)C4)cc3C2=O)cc1 (stereo not drawn) | 7.08 µM [falling, partial curve] | 
CSc1nnnn1-c1ccc(C)c(Cl)c1 | 25.9 µM [rising, single point] | 
O=C(N/N=C/c1ccc(Br)cc1)c1ccc(F)cc1 | 10.3 µM [falling, partial curve] | 
Cc1oc(-c2ccccc2)cc1C(=O)NC(Cc1c[nH]c2ccccc12)C(=O)O (stereo not drawn) | 0.0517 µM [rising, full curve] | 0.058 µM [rising, full curve]
Cc1ccc(CC2CC(=O)N(c3ccc(C)cc3)C2=O)cc1 (stereo not drawn) | 35.5 µM [rising, single point] | 
Cc1cccc(NC(=O)c2cc(NC(=O)c3ccco3)ccc2N2CCCCC2)c1 | 0.366 µM [falling, partial curve, poor fit] | 
CCOc1cc(CNCCO)cc(Br)c1OCc1ccccc1Cl | 35.5 µM [falling, single point] | 35.5 µM [rising, partial curve, poor fit]
O=C1/C(=C/c2cccs2)CCC1C1CCCC1 (stereo not drawn) | 1.58 µM [rising, full curve, poor fit] | 
O=c1cc(-c2ccc(O)cc2)oc2cc(O)c(C3OC(CO)C(O)C(O)C3O)c(O)c12 (stereo not drawn) | 25.1 µM [rising, single point] | 
O=C(COc1nc2ccccc2nc1N1CCOCC1)Nc1cccc(S(=O)(=O)N2CCCCC2)c1 | 29.1 µM [falling, single point] | 
CN(Cc1ccccc1)Cc1nc2scc(-c3ccccc3)c2c(=O)[nH]1 | 2.51 µM [rising, partial curve, poor fit] | 
O=S(=O)(c1ccc(Nc2ccc(-c3ccc4c(c3)OCCO4)nn2)cc1)N1CCCC1 | 23.1 µM [falling, single point] | 
COCCn1c(SCC(=O)Nc2nc(C)cs2)nnc1C(C)C | 7.94 µM [falling, partial curve] | 
COc1ccc2cc(/C=C3\SC(=S)NC3=O)c(N3CCOCC3)nc2c1 | 0.82 µM [rising, full curve, poor fit] | 
Cc1ccc(S(=O)(=O)Nc2cccc(-c3ccc4nncn4n3)c2)cc1 | 29.1 µM [rising, single point] | 11.6 µM [falling, partial curve]
Cc1cc(C)c2c(CN3CCCCC3C)cc(=O)oc2c1 (stereo not drawn) | 14.1 µM [rising, single point] | 
COc1cc(/C=C(\C#N)C(=O)Nc2ccc(C(=O)O)cc2)ccc1OC(=O)c1cccc(F)c1 | 7.08 µM [falling, full curve] | 
COc1ccccc1C(C)NC(=O)c1ccc(C)o1 (stereo not drawn) | 2.06 µM [falling, single point] | 

Compound | AC50 [1] | AC50 [2]
CCC(=O)Nc1c(S(=O)(=O)c2ccccc2)c2nc3ccccc3nc2n1Cc1ccccc1 | 9.2 µM [falling, partial curve] | 8.2 µM [rising, partial curve, poor fit]
CC(C)c1ccc(-c2cc(C(=O)N3N=C(C(F)F)CC3(O)C(F)F)c3ccccc3n2)cc1 (stereo not drawn) | 0.116 µM [rising, full curve, poor fit] | 
O=C(C(=O)N1CCN(c2ccccc2Cl)CC1)c1c[nH]c2ccccc12 | 15.8 µM [falling, single point] | 
O=C(CSc1nc2ccccc2c(=O)n1-c1ccccc1)N1CCN(CCO)CC1 | 3.55 µM [rising, full curve, poor fit] | 
CC(C)NC(=O)/C(C#N)=C\c1ccc(N(C)C)c(Br)c1 | 35.5 µM [falling, single point] | 
COc1ccc(OCCN(C)C(=O)c2cccc(S(=O)(=O)N(C)c3ccccc3)c2)cc1 | 0.517 µM [rising, partial curve, poor fit] | 
CCOC(=O)c1oc2ccc(/C=N/O)c(Cl)c2c1C | 2.82 µM [rising, full curve, poor fit] | 
COc1ccc(-c2nn(CCC#N)cc2/C=N/O)cc1OC | 12.6 µM [rising, partial curve] | 
CC1C(=O)C(C)C(c2ccc(Br)cc2)NC1c1ccc(Br)cc1 (stereo not drawn) | 31.6 µM [rising, single point] | 
CC1(CC(=O)N/N=C/c2ccc(-c3ccc(Cl)cc3)o2)OCCO1 | 0.461 µM [rising, full curve, poor fit] | 
O=C(C1=C(O)C(=O)N(CCCN2CCOCC2)C1c1ccccn1)c1cccs1 (stereo not drawn) | 35.5 µM [falling, single point] | 
O=C(CN1C(=O)NC2(CCCC2)C1=O)Nc1ccccc1N1CCCCC1 | 1.03 µM [falling, full curve] | 
COc1ccccc1OCCCC(=O)Nc1ccc2c(c1)OCCO2 | 22.4 µM [falling, partial curve, poor fit] | 
CN(CC(=O)Nc1ccc(Cl)cc1)C(=O)c1ccc(S(=O)(=O)Nc2ccccc2)cc1 | 25.9 µM [falling, single point] | 
Cc1ccc(NC(=O)C2OCCc3ccccc32)cc1C (stereo not drawn) | 7.08 µM [rising, full curve, poor fit] | 
COC(=O)N1CC(c2ccccc2)CC1=O (stereo not drawn) | 0.517 µM [falling, full curve, poor fit] | 0.92 µM [rising, full curve, poor fit]
Cc1nnc(SCc2nnc(-c3ccccc3)o2)n(N)c1=O | 29.1 µM [rising, single point] | 
Cc1cnc(=O)[nH]c1SCC(=O)c1ccc(F)cc1 | 0.112 µM [rising, full curve, poor fit] | 
Cc1ccccc1C(C)NC(=O)COC(=O)Cn1cc(C(F)(F)F)ccc1=O (stereo not drawn) | 7.31 µM [rising, partial curve, poor fit] | 
O=C(Nc1ccccc1)C1=C[C@H](c2csc3ccccc23)C[C@H](OCc2ccc(CO)cc2)O1 | 11.2 µM [falling, partial curve] | 
